Measurements as given in PubChem BioAssay AID1794845 (National Center for Advancing Translational Sciences (NCATS), 2023).
The whole screen tested about 6,900 compounds, of which fewer than 10 were called active. The call rests on the fitted dose curve; in most records, active means well fitted curve in the direction sought with a large enough effect; inconclusive means small, poorly fitted or top-dose-only effect, or another doubt; inactive means no such curve, though single readings can be large or run the other way. This is one part of the list.

Chains of the proteins cited; added tags and fusions are not shown. Lines headed by an entry give the natural chain unless they say otherwise; changes in a name come on top.
UniProt C7C422: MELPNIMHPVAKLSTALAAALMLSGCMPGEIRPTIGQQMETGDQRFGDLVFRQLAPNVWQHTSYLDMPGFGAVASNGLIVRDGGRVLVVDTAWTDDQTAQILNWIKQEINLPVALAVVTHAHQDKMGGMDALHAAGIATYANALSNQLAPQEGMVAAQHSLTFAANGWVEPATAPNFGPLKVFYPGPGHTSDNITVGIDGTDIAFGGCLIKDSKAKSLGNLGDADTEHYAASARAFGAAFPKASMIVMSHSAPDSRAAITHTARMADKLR

Biological target: Metallo-beta-lactamase type 2 (Klebsiella pneumoniae) (UniProt C7C422)
Experiment: qHTS to identify inhibitors of the New Delhi Metallo-beta-lactamase (NDM): primary screen against the NCATS Gemini Collection; further: % of control where 0% means no effect
Conditions: NDM-1 enzyme, meropenem hydrolysis, absorbance 300 nm; at 38.4 µM (top of the series) unless noted
In short: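 Meropenem hydrolysis (50 uM final) by 2 nM NDM-1 read as 300 nm absorbance after 30 min, following >30 min compound–enzyme preincubation in HEPES pH 7.0 with 1 uM ZnSO4 and 0.01% Tween20.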

Activity % (negative = inhibition), inactive:
Cc1nc(CN(C)C(=O)c2coc(COc3ccc(F)cc3Cl)n2)cs1 4.56%, COc1ccc(-c2noc([C@@H](C)NCc3ccc(F)cc3)c2C(=O)O)cc1 2.58% [at 57.5 µM], O=C1CC2(CCN(S(=O)(=O)c3cccs3)CC2)Oc2ccccc21 -2.19%, O=C(NCC(=O)N1CCOCC1)c1cccc(-c2ccsc2)c1 -0.153% [at 57.5 µM], COc1cccc(-c2ccc(NC(=O)C3CCCN3Cc3cnn(C)c3)cc2)c1 (configuration not stated) 14.9%, Cc1noc(C)c1C(=O)N1CC(n2cc(COCc3ccccc3)nn2)C1 7.75%, O=C(NCC(O)CO)c1ccc(OC2CCN(CCc3ccccc3)CC2)cc1 (configuration not stated) 1.84%, CCCn1ncnc1C(C)Nc1cc(C(C)C)nc2cc(C)nn12 (configuration not stated) 13.3%, COc1cccc(CCC(=O)NC2CCN(c3cc(C(F)(F)F)nc(C)n3)CC2)c1 6.73%, CN1CCCCCCN(C(=O)c2cnccn2)[C@H]2CCC[C@H]2C1=O 6.25%, c1ccc(COC2CCN(c3nccc(-c4cccnc4)n3)CC2)nc1 20.1%, Cn1cc(CNC(=O)c2ccc(OC3CCN(S(C)(=O)=O)CC3)c(Cl)c2)cn1 -0.909%, COCC(=O)N(C)Cc1ccc(F)cc1 2.13% [at 77.1 µM], O=C(c1ccsc1)N1CCC2(CCC2N2CCOCC2)CC1 (configuration not stated) 8.65%, O=C(C1CC1)N1CCOc2ccc(CN3CCCC3)cc2C1 -0.277%, CCN1C(=O)CCc2cc(NC(=O)c3ccn(CC)n3)ccc21 11.6%, COC1CCN(c2cc(-c3ccsc3)nc3c(C)noc23)CC1 9.77% [at 57.5 µM], Cc1nc(C2CC23CCN(C(=O)Nc2ccccc2F)CC3)no1 (configuration not stated) -2.15%, CN1CCN(c2ccc(-c3noc([C@@H]4CCCN4Cc4ccccc4)n3)cn2)CC1 47.6% [at 57.5 µM], COc1cccc([S+](=O)([O-])N2CCN(CCn3nc4n(c3=O)CCCC4)CC2)c1 -2.68%, CN1CCN(C(=O)c2cc(-c3ccsc3)nc3c2cnn3C)CC1 19.5% [at 57.5 µM], COc1ccc(C(=O)N2CCC(N3C(=O)[C@H](OC)[C@@H]3c3ccncc3)CC2)c(OC)c1 5.5%, O=C(c1cc(-c2ccccc2)n[nH]1)N1CCc2c(nc(-c3ccccc3)[nH]c2=O)C1 6.31%, CCN(CC)C(=O)N1CCC(c2noc(COc3ccc(F)cc3)n2)C1 (configuration not stated) 3.14%, Cc1cnc(C2CC2)n1CCNC(=O)NC1CCCCC1 8.29%, COc1ccc(OCc2cc(C(=O)NC(CO)C(C)C)no2)c2ccccc12 (configuration not stated) 0.0207%, COc1ccc(Cl)cc1C(=O)N1CC(F)(F)C[C@H]1c1nc(C)no1 61.7%, CN(CCc1noc(C2CN(S(=O)(=O)c3ccccc3)C2)n1)C(=O)c1ccncc1 -0.943%, O=c1c2c(CO)c(-c3ccccc3)nn2ccn1Cc1cc(=O)n2ccccc2n1 7.66%, Cc1ccc(CN2CC[C@H](c3nc4ccc(C)cc4[nH]3)C2)cc1 6.51% [at 57.5 µM], CCCNC(=O)[C@@H]1Cc2cn(Cc3nccn3C)c3cccc(c23)[C@H](CC(C)C)N1 6.32% [at 57.5 µM], COC(=O)c1ccc2c(c1)nc1n2[C@@H](CNC(=O)CC(C)(C)C)COC1 0.173% [at 57.5 µM], Cc1noc(-c2ccco2)c1C(=O)NCc1cccc(Cl)c1 7.68%, CC(CN)(c1ccccn1)N1CCOCC1 (configuration not stated) 3.09% [at 77.1 µM], O=C(Nc1ccccc1)c1cc2n(n1)CCN(C(=O)COc1ccccc1)C2 0.0882%, CCCCS(=O)(=O)N1CC(F)(F)C[C@H]1c1nnc(C)o1 0.592%, CC(NC1CCC2(CCNCC2)CC1)c1ccc(S(C)(=O)=O)cc1 (configuration not stated) -8.6%, NC(=O)c1cc2c(nc1CCC1COc3ccccc3O1)CCC2 (configuration not stated) -1.46%, COc1ccc(C(=O)N2C(C(=O)N3CCCC3)COC23CCN(C(=O)C2CCC2)CC3)cc1 (configuration not stated) 20.8%, O=C(NC1CCN(c2cc(N3CCOCC3)cnn2)C1)C1CC1 (configuration not stated) 49.2%, CCn1c(CO)nnc1C1CC(NC(=O)c2nn(C)c(C)c2Cl)C1 (configuration not stated) -2.63%, COc1cccc(CN2CCCC3(CCN(c4cc(C)nc(N)n4)C3)C2)c1OC (configuration not stated) 1.37%, C[C@H](C(=O)NCCN1CCOCC1)C1CC[C@@]2(C)Cc3sc(CS(=O)(=O)C(C)(C)C)nc3[C@@H](C)[C@@H]2[C@H]1O (some centres not stated) -3.51%, Cc1nc(N2CCC(NC(=O)c3cccnc3)CC2)cc(C(F)(F)F)n1 14.3%, CNC(=O)[C@@H]1CN(S(=O)(=O)C(C)C)C[C@H]1c1n[nH]c(C)n1 0.0968%, CCn1nc(C)c(-c2cc(C(=O)N3CCC(CCOc4ccccc4OC)C3)no2)c1C (configuration not stated) 3.67%, Cc1ncsc1C(=O)N1CC(CNC(=O)C2CC2)C2(C1)CN(c1ccccc1)C2 (configuration not stated) -0.697% [at 57.5 µM], Cc1ccc2[nH]c(CCC(=O)N3CC[C@H](CO)[C@H](O)C3)nc2c1C 40.7%, COc1cccc(CCN(Cc2cccc(C)c2)C(=O)[C@H]2CCC[C@H](O)C2)c1 2.4%, O=C(Nc1nn(-c2cccc(F)c2)c2cccc(N3CCOCC3)c12)C1CCC1 2.65%, CCN1CCCN(S(=O)(=O)c2cccs2)CC12CCOCC2 0.121%, COc1ccc(NC(=O)N2CC(N(C3CCOCC3)S(C)(=O)=O)C2)cc1F 1.6%, COCC1CN(Cc2ccc(Br)s2)CC12CCNCC2 (configuration not stated) -0.815%, CC(C)c1ccc(C(O)Cn2ccn3nc(-c4ccc(F)cc4)cc3c2=O)cc1 (configuration not stated) -7.5%, O=C1N(C2CCCCC2)C[C@H]2CN(S(=O)(=O)c3ccccc3)CCN12 0.953% [at 57.5 µM], CC(=O)N1Cc2ccccc2CC2(CCN(Cc3ccc(O)cc3)CC2)C1 -0.861%, O=C(c1ccccn1)N1CCC2(CC(c3cccc(C(F)(F)F)c3)=NO2)C1 (configuration not stated) -1.57%, CNC(=O)N1CCC(C2CCN(Cc3ccc(Br)o3)C2)CC1 (configuration not stated) 0.431%, Cn1nccc1C(O)c1cc2n(n1)CCN(CC(=O)NCc1ccco1)C2 (configuration not stated) 0.962%, COCCOC1CN(C2CCN(S(C)(=O)=O)CC2)C12CCCCC2 (configuration not stated) 1.22%, O=C(NCc1ccco1)[C@@H]1Cc2nc[nH]c2CN1CCCc1ccccc1 -2.66% [at 57.5 µM], COc1cccc(-c2noc(-c3ccc(-c4cn[nH]c4)nc3)n2)c1OC 0.249%, COc1ccccc1-n1cnc2cccnc21 -7.86% [at 77.1 µM], CC(Cn1cncn1)Nc1ccc(-c2nc(Cc3ccc(F)cc3)no2)cn1 (configuration not stated) 73.8%, O=C(NCc1ccc(F)cc1)c1cnc2n[nH]c(-c3ccccc3)c2n1 25.5% [at 57.5 µM], O=C(c1ccncc1)N1CCC(Nc2cccnc2)C1 (configuration not stated) 4.62%, COCC(=O)N1CCC(C2CCN(C(=O)c3ccncc3)CC2)C1 (configuration not stated) -0.46%, c1coc(-c2nnc([C@H]3CCN(Cc4c[nH]c5ccccc45)C3)o2)c1 37.1% [at 57.5 µM], CN1CCC(NC(=O)CC2(Cc3ccccc3)C(=O)N(C)c3ccccc32)CC1 (configuration not stated) 28.8%, CSCCCN1CC[C@@H](NC(=O)c2ccncc2)[C@H](O)C1 8.59%, Cc1cc2ncc(C(=O)NCc3ccccc3Cl)cn2n1 -0.309% [at 57.5 µM], O=C(C1CC1)N1CCC(Cc2noc(-c3ccncc3)n2)C1 (configuration not stated) 1.23%, c1cncc(-c2nnc3n2CCN(Cc2ccsc2)C3)c1 45.6% [at 57.5 µM], COc1ccc(C(=O)N2CC[C@H](c3nnc(-c4ccccc4)o3)C2)cc1 4.86% [at 57.5 µM], O=c1[nH]nc2n1CCN(CC1CCCCC1)CC2 5.08%, COCCOCc1nc(C2CCCN2C(=O)c2ccccn2)no1 (configuration not stated) 10.5%, CN1CCN(c2cc(N3CCCC(CN4CCCCC4)C3)nc(N)n2)CC1 (configuration not stated) -3.94%, COCCn1c(=O)n([C@H]2CCCN(C(=O)NCCc3ccccc3)C2)c2ncccc21 10%, CCc1nc(CN2CCC(N3CCCC(C(=O)NCc4ccccn4)C3)CC2)no1 (configuration not stated) -0.828%, CN1CCC(N2CCC[C@H]2c2nc(-c3ccc(OC4CCCCC4)nc3)no2)CC1 1.94% [at 57.5 µM], Cc1cnc(CCNC(=O)c2n[nH]c(=O)c3ccccc23)n1C1CCCCC1 24.7%, O=C(NCCc1ccc(F)cc1)c1cc(-c2ccccc2)c2nncn2n1 18%, CCC(c1cnn(C)c1)n1ccnc1-c1cc(F)c(OC)c(Cl)c1 (configuration not stated) 0.927%, O=C(N1CCCCCC1)C1(CCO)CCN(c2ncccn2)C1 (configuration not stated) 3.73%, Cc1cc(=O)oc2cc(CN(C)CC(C)N3CCOCC3)ccc12 (configuration not stated) 0.386%, O=C1N(c2ccccc2)c2ccccc2C12CCN([S+](=O)([O-])c1cccc(C(F)(F)F)c1)C2 (configuration not stated) 0.178%, CC1(C)[C@H]2CC[C@@H](CNC(=O)c3cncc(Br)c3)[C@@H]1C2 -5.51%
